The values below come from article PMC10645587.

These are yes or no findings as the source states them, for the method shown. In cells and extracts the contact can be indirect. Some entries that bind do so weakly or less than the wild type. For some of these results: Sequences can lack the tags named with a protein.

In one assay the target is Flag-tagged EGFR (WT) (UniProt P00533). Nature of the assay: co-IP; A549 cells transfected with Flag-EGFR or LAMC2-His vectors (against the endogenous partner), A549 and HEK-293T cells co-transfected with both; lysates (150 mM NaCl, 1% NP-40, 50 mM Tris-HCl pH 8.0, protease inhibitor); primary antibody on Dynal magnetic beads overnight at 4 °C, five washes with PBS, western blot.

Assay [1] addresses Epidermal growth factor receptor (EGFR), endogenous (human (endogenous in A549 and HCC827)) (UniProt P00533). Nature of the assay: co-IP; endogenous proteins in A549 and HCC827 cell lysates (150 mM NaCl, 1% NP-40, 50 mM Tris-HCl pH 8.0, protease inhibitor); primary antibody on Dynal magnetic beads overnight at 4 °C, five washes with PBS, western blot.
For assay [2] the target is unchanged. Nature of the assay: co-IP; A549 cells transfected with Flag-EGFR or LAMC2-His vectors (against the endogenous partner), A549 and HEK-293T cells co-transfected with both; lysates (150 mM NaCl, 1% NP-40, 50 mM Tris-HCl pH 8.0, protease inhibitor); primary antibody on Dynal magnetic beads overnight at 4 °C, five washes with PBS, western blot.

B1: Laminin-5γ-2 (LAMC2), endogenous (protein, UniProt Q13753 22-1193)
chain: TSRREVCDCNGKSRQCIFDRELHRQTGNGFRCLNCNDNTDGIHCEKCKNGFYRHRERDRCLPCNCNSKGSLSARCDNSGRCSCKPGVTGARCDRCLPGFHMLTDAGCTQDQRLLDSKCDCDPAGIAGPCDAGRCVCKPAVTGERCDRCRSGYYNLDGGNPEGCTQCFCYGHSASCRSSAEYSVHKITSTFHQDVDGWKAVQRNGSPAKLQWSQRHQDVFSSAQRLDPVYFVAPAKFLGNQQVSYGQSLSFDYRVDRGGRHPSAHDVILEGAGLRITAPLMPLGKTLPCGLTKTYTFRLNEHPSNNWSPQLSYFEYRRLLRNLTALRIRATYGEYSTGYIDNVTLISARPVSGAPAPWVEQCICPVGYKGQFCQDCASGYKRDSARLGPFGTCIPCNCQGGGACDPDTGDCYSGDENPDIECADCPIGFYNDPHDPRSCKPCPCHNGFSCSVMPETEEVVCNNCPPGVTGARCELCADGYFGDPFGEHGPVRPCQPCQCNNNVDPSASGNCDRLTGRCLKCIHNTAGIYCDQCKAGYFGDPLAPNPADKCRACNCNPMGSEPVGCRSDGTCVCKPGFGGPNCEHGAFSCPACYNQVKIQMDQFMQQLQRMEALISKAQGGDGVVPDTELEGRMQQAEQALQDILRDAQISEGASRSLGLQLAKVRSQENSYQSRLDDLKMTVERVRALGSQYQNRVRDTHRLITQMQLSLAESEASLGNTNIPASDHYVGPNGFKSLAQEATRLAESHVESASNMEQLTRETEDYSKQALSLVRKALHEGVGSGSGSPDGAVVQGLVEKLEKTKSLAQQLTREATQAEIEADRSYQHSLRLLDSVSRLQGVSDQSFQVEEAKRIKQKADSLSSLVTRHMDEFKRTQKNLGNWKEEAQQLLQNGKSGREKSDQLLSRANLAKSRAQEALSMGNATFYEVESILKNLREFDLQVDNRKAEAEEAMKRLSYISQKVSDASDKTQQAERALGSAAADAQRAKNGAGEALEISSEIEQEIGSLNLEANVTADGALAMEKGLASLKSEMREVEGELERKELEFDTNMDAVQMVITEAQKVDTRAKNAGVTIQDTLNTLDGLLHLMDQPLSVDEEGLVLLEQKLSRAKTQINSQLRPMMSELEERARQQRGHLHLLETSIDGILADVKNLENIRDNLPPGCYNTQALEQQ
Turning to B1, the binding result (with Flag-tagged EGFR (WT); in assay [1]) was “binds” throughout.

B2: His-tagged LAMC2 (WT) (protein, UniProt Q13753 22-1193)
chain: TSRREVCDCNGKSRQCIFDRELHRQTGNGFRCLNCNDNTDGIHCEKCKNGFYRHRERDRCLPCNCNSKGSLSARCDNSGRCSCKPGVTGARCDRCLPGFHMLTDAGCTQDQRLLDSKCDCDPAGIAGPCDAGRCVCKPAVTGERCDRCRSGYYNLDGGNPEGCTQCFCYGHSASCRSSAEYSVHKITSTFHQDVDGWKAVQRNGSPAKLQWSQRHQDVFSSAQRLDPVYFVAPAKFLGNQQVSYGQSLSFDYRVDRGGRHPSAHDVILEGAGLRITAPLMPLGKTLPCGLTKTYTFRLNEHPSNNWSPQLSYFEYRRLLRNLTALRIRATYGEYSTGYIDNVTLISARPVSGAPAPWVEQCICPVGYKGQFCQDCASGYKRDSARLGPFGTCIPCNCQGGGACDPDTGDCYSGDENPDIECADCPIGFYNDPHDPRSCKPCPCHNGFSCSVMPETEEVVCNNCPPGVTGARCELCADGYFGDPFGEHGPVRPCQPCQCNNNVDPSASGNCDRLTGRCLKCIHNTAGIYCDQCKAGYFGDPLAPNPADKCRACNCNPMGSEPVGCRSDGTCVCKPGFGGPNCEHGAFSCPACYNQVKIQMDQFMQQLQRMEALISKAQGGDGVVPDTELEGRMQQAEQALQDILRDAQISEGASRSLGLQLAKVRSQENSYQSRLDDLKMTVERVRALGSQYQNRVRDTHRLITQMQLSLAESEASLGNTNIPASDHYVGPNGFKSLAQEATRLAESHVESASNMEQLTRETEDYSKQALSLVRKALHEGVGSGSGSPDGAVVQGLVEKLEKTKSLAQQLTREATQAEIEADRSYQHSLRLLDSVSRLQGVSDQSFQVEEAKRIKQKADSLSSLVTRHMDEFKRTQKNLGNWKEEAQQLLQNGKSGREKSDQLLSRANLAKSRAQEALSMGNATFYEVESILKNLREFDLQVDNRKAEAEEAMKRLSYISQKVSDASDKTQQAERALGSAAADAQRAKNGAGEALEISSEIEQEIGSLNLEANVTADGALAMEKGLASLKSEMREVEGELERKELEFDTNMDAVQMVITEAQKVDTRAKNAGVTIQDTLNTLDGLLHLMDQPLSVDEEGLVLLEQKLSRAKTQINSQLRPMMSELEERARQQRGHLHLLETSIDGILADVKNLENIRDNLPPGCYNTQALEQQ
For B2, the binding result (in assay [2]; with Flag-tagged EGFR (WT)) was “binds” each time.
